Among the data in PubChem BioAssay AID248 (DTP/NCI, 2004) are survivor count and T/C values, retold here.

The subject of this assay is L1210 leukemia ip in BDF1 mice, survival T/C. The experiment in a line: NCI In Vivo Anticancer Drug Screen. Data for tumor model L1210 Leukemia (intraperitoneal) in B6D2F1 (BDF1) mice. The conditions noted are these: higher T/C = longer survival.
The mark [1] stands for this setting: T/C endpoint: mean survival time, dose: 400.0 mg/kg/injection, schedule: Q01DX009 (ip), vehicle: saline.
[2] abbreviates: T/C endpoint: mean survival time, dose: 200.0 mg/kg/injection, schedule: Q04DX003 (ip), vehicle: Klucel (hydroxypropylcellulose) (HPC).
[3] abbreviates: T/C endpoint: mean survival time, dose: 400.0 mg/kg/injection, schedule: Q04DX003 (ip), vehicle: Klucel (hydroxypropylcellulose) (HPC).
[4] abbreviates: T/C endpoint: mean survival time, dose: 400.0 mg/kg/injection, schedule: Q04DX003 (ip), vehicle: saline.
[5] abbreviates: T/C endpoint: mean survival time, dose: 200.0 mg/kg/injection, schedule: Q01DX009 (ip), vehicle: other.

The list is a part of this screen's results and no random one: it gathers tests that were run many times, whatever their T/C, doses with no T/C, and many T/C values between a quarter and a half above the control. Other doses and runs of a compound stand elsewhere. T/C: endpoint of the treated group in % of that of the vehicle group. Some entries give survivors of the animals treated and no T/C: the source files T/C as zero there, which appears to mark a toxic dose or a test without result, not a measured value. Some doses without a T/C left all or most animals alive at the check, yet need not have been tolerated: survival well below the control is almost never listed, so the zero probably covers shortened survival too. Counts of survivors are from the toxicity check (mostly the fifth day) where no day follows; animals may have died later. Schedules are NCI's codes, taken here to give the interval after Q, in days (D) or hours (H), and the number of doses after X. Signs of the kind (2×) count equal records among those shown. Some entries hold several experiments; the values are given in rising order. For survival time, the PubChem record calls one and a half times the control and up active, and a quarter to a half above the control has no call in these data; cut-offs in other NCI protocols can differ. Some schedule codes hold Z or #, which are not explained here. Some T/C values carry the count of animals alive at the toxicity check (mostly the fifth day); without a count, all were alive then.

In the case of `CCC(/C=C1\Sc2ccc(C)cc2N1CC)=C\c1sc2ccc(OC)cc2[n+]1CC`, the survivor count by setting is: (T/C endpoint: mean survival time, dose: 8.0 mg/kg/injection, schedule: Q01DX001 (ip), vehicle: other) 0 of 6; (T/C endpoint: mean survival time, dose: 9.5 mg/kg/injection, schedule: Q01DX001 (ip), vehicle: other) 0 of 6; (T/C endpoint: mean survival time, dose: 19.0 mg/kg/injection, schedule: Q01DX001 (ip), vehicle: other) 0 of 6; (T/C endpoint: mean survival time, dose: 38.0 mg/kg/injection, schedule: Q01DX001 (ip), vehicle: other) 0 of 6; (T/C endpoint: mean survival time, dose: 75.0 mg/kg/injection, schedule: Q01DX001 (ip), vehicle: other) 0 of 6; (T/C endpoint: mean survival time, dose: 150.0 mg/kg/injection, schedule: Q01DX001 (ip), vehicle: other) 0 of 6. Besides, where the note is “T/C endpoint: mean survival time, dose: 300.0 mg/kg/injection, schedule: Q01DX001 (ip), vehicle: other”, the survivor count is 0 of 6.

On to `OCC1CC2CC(O)C1C2` (stereo unspecified), for which the survivor count was 0 of 6 (T/C endpoint: mean survival time, dose: 150.0 mg/kg/injection, schedule: Q01DX001 (ip), vehicle: saline) and 0 of 6 (2×) (T/C endpoint: mean survival time, dose: 300.0 mg/kg/injection, schedule: Q01DX001 (ip), vehicle: saline).

Take `C#CCN(C)Cc1ccccc1`: the survivor count under setting [1] is reported as 0 of 6.

As for `CS(C)=O.CS(C)=O.[Cl][Sn]([Cl])([Cl])[Cl]`, the survivor count runs as follows: under setting [2], 6 of 6; (T/C endpoint: mean survival time, dose: 225.0 mg/kg/injection, schedule: Q01DX009 (ip), vehicle: Klucel (hydroxypropylcellulose) (HPC)) 4 of 6; (T/C endpoint: mean survival time, dose: 335.0 mg/kg/injection, schedule: Q01DX009 (ip), vehicle: Klucel (hydroxypropylcellulose) (HPC)) 1 of 6; under setting [3], 6 of 6.

On to `COc1ccc2c(Nc3ccc(NS(C)(=O)=O)cc3)c3ccccc3nc2c1`, for which the T/C by setting is: (T/C endpoint: mean survival time, dose: 6.25 mg/kg/injection, schedule: Q01DX009 (sc), vehicle: saline) 137 % of control; (T/C endpoint: mean survival time, dose: 12.5 mg/kg/injection, schedule: Q01DX009 (sc), vehicle: saline) 145 % of control.

In the case of `CCCCCCCCCCCC[N+]1(CCCCCCCCCCCC)CCCC(C)C1` (stereo unspecified), the survivor count is, setting by setting: (T/C endpoint: mean survival time, dose: 12.0 mg/kg/injection, schedule: Q04DX002 (ip), vehicle: Klucel (hydroxypropylcellulose) (HPC)) 0 of 3; (T/C endpoint: mean survival time, dose: 25.0 mg/kg/injection, schedule: Q04DX002 (ip), vehicle: Klucel (hydroxypropylcellulose) (HPC)) 0 of 3; (T/C endpoint: mean survival time, dose: 50.0 mg/kg/injection, schedule: Q04DX002 (ip), vehicle: Klucel (hydroxypropylcellulose) (HPC)) 0 of 3; (T/C endpoint: mean survival time, dose: 100.0 mg/kg/injection, schedule: Q04DX002 (ip), vehicle: Klucel (hydroxypropylcellulose) (HPC)) 0 of 3.

On to `CC(=O)[O][Hg][c]1cc2c(cc1N)Cc1cc([N+](=O)[O-])ccc1-2`, for which the survivor count is, setting by setting: (T/C endpoint: mean survival time, dose: 25.0 mg/kg/injection, schedule: Q01DX001 (ip), vehicle: carboxymethylcellulose (CMC)) 2 of 6; (T/C endpoint: mean survival time, dose: 50.0 mg/kg/injection, schedule: Q01DX001 (ip), vehicle: carboxymethylcellulose (CMC)) 0 of 6; (T/C endpoint: mean survival time, dose: 100.0 mg/kg/injection, schedule: Q01DX001 (ip), vehicle: carboxymethylcellulose (CMC)) 0 of 6 and 1 of 4; (T/C endpoint: mean survival time, dose: 200.0 mg/kg/injection, schedule: Q01DX001 (ip), vehicle: carboxymethylcellulose (CMC)) 0 of 4; (T/C endpoint: mean survival time, dose: 400.0 mg/kg/injection, schedule: Q01DX001 (ip), vehicle: carboxymethylcellulose (CMC)) 0 of 4.

For `c1ccc(Sc2ncnc3nc[nH]c23)nc1`, the T/C (T/C endpoint: mean survival time, dose: 400.0 mg/kg/injection, schedule: Q01DX001 (ip), vehicle: saline with Tween-80) was 126 % of control. Further, the survivor count (T/C endpoint: mean survival time, dose: 600.0 mg/kg/injection, schedule: Q01DX001 (ip), vehicle: saline with Tween-80) is on record as 3 of 6.

Take `CCCCN(C)N=Nc1ccc(CCC(=O)OCC)cc1`: the T/C is, setting by setting: (T/C endpoint: mean survival time, dose: 145.0 mg/kg/injection, schedule: Q01DX009 (ip), vehicle: saline with Tween-80) 138 % of control; (T/C endpoint: mean survival time, dose: 177.0 mg/kg/injection, schedule: Q01DX007 (ip), vehicle: saline) 144 % of control; (T/C endpoint: mean survival time, dose: 266.0 mg/kg/injection, schedule: Q01DX009 (ip), vehicle: other) 128 % of control; (T/C endpoint: mean survival time, dose: 375.0 mg/kg/injection, schedule: Q01DX Z (ip), vehicle: saline) 137 % of control; (T/C endpoint: mean survival time, dose: 829.0 mg/kg/injection, schedule: Q01DX001 (ip), vehicle: saline with Tween-80) 135 % of control [9 of 10 alive]; (T/C endpoint: median survival time, dose: 100.0 mg/kg/injection, schedule: Q01DX009 (ip), vehicle: saline) 130 % of control. Also, the T/C reads like this: (T/C endpoint: median survival time, dose: 200.0 mg/kg/injection, schedule: Q01DX009 (ip), vehicle: saline) 133 % of control; (T/C endpoint: median survival time, dose: 400.0 mg/kg/injection, schedule: Q01DX009 (ip), vehicle: saline) 148 % of control; (T/C endpoint: median survival time, dose: 400.0 mg/kg/injection, schedule: Q04DX003 (ip), vehicle: Klucel (hydroxypropylcellulose) (HPC)) 133 % of control. Further, the survivor count runs as follows: (T/C endpoint: mean survival time, dose: 600.0 mg/kg/injection, schedule: Q01DX007 (ip), vehicle: saline) 1 of 6; (T/C endpoint: median survival time, dose: 800.0 mg/kg/injection, schedule: Q04DX003 (ip), vehicle: Klucel (hydroxypropylcellulose) (HPC)) 5 of 8; (T/C endpoint: median survival time, dose: 1600.0 mg/kg/injection, schedule: Q04DX003 (ip), vehicle: Klucel (hydroxypropylcellulose) (HPC)) 2 of 8.

Consider `CCOP(=O)(CSCCc1ccccc1)OCC`, for which the survivor count under setting [4] was 0 of 6.

As for `ClC(Cl)(Cl)CC(Br)C(Br)CBr` (stereo unspecified), the survivor count is on record as 6 of 6 (T/C endpoint: mean survival time, dose: 200.0 mg/kg/injection, schedule: Q01DX009 (ip), vehicle: acetone) and 3 of 6 (T/C endpoint: mean survival time, dose: 400.0 mg/kg/injection, schedule: Q01DX009 (ip), vehicle: acetone).

Regarding `CCCCCCCCCC(=O)N1C(C)CCC1C` (stereo unspecified), the survivor count (T/C endpoint: mean survival time, dose: 400.0 mg/kg/injection, schedule: Q04DX002 (ip), vehicle: other) is given as 1 of 3.

As for `O=C(Oc1ccc([N+](=O)[O-])cc1)c1ccc(C[n+]2ccccc2)cc1`, the survivor count reads like this: under setting [1], 1 of 6; under setting [4], 4 of 6.

As for `O=[N+]([O-])c1ccc(C(F)(F)F)cc1`, under setting [5], the survivor count is listed as 4 of 6.

On to `[O-][n+]1ccccc1Br`, for which the survivor count by setting is: (T/C endpoint: mean survival time, dose: 100.0 mg/kg/injection, schedule: Q01DX009 (ip), vehicle: water) 5 of 6; (T/C endpoint: mean survival time, dose: 200.0 mg/kg/injection, schedule: Q01DX009 (ip), vehicle: water) 3 of 6; (T/C endpoint: mean survival time, dose: 400.0 mg/kg/injection, schedule: Q01DX009 (ip), vehicle: water) 0 of 6; (T/C endpoint: mean survival time, dose: 400.0 mg/kg/injection, schedule: Q04DX003 (ip), vehicle: water) 0 of 6.

Take `CCOC1CCN(CCCn2c3ccccc3c3ccc(C(C)=O)cc32)CC1`: the survivor count (T/C endpoint: mean survival time, dose: 400.0 mg/kg/injection, schedule: Q01DX001 (ip), vehicle: saline) was 0 of 6.

As to `O=C(O)c1cccc2c1C(=O)c1cc([N+](=O)[O-])ccc1-2`, the survivor count (T/C endpoint: mean survival time, dose: 300.0 mg/kg/injection, schedule: Q01DX001 (ip), vehicle: carboxymethylcellulose (CMC)) is recorded as 0 of 6.

In the case of `O=Nc1ccc2cc(O)ccc2c1O`, the survivor count reads like this: (T/C endpoint: mean survival time, dose: 25.0 mg/kg/injection, schedule: Q01DX009 (ip), vehicle: Klucel (hydroxypropylcellulose) (HPC)) 6 of 6; (T/C endpoint: mean survival time, dose: 50.0 mg/kg/injection, schedule: Q01DX009 (ip), vehicle: Klucel (hydroxypropylcellulose) (HPC)) 2 of 6; (T/C endpoint: mean survival time, dose: 100.0 mg/kg/injection, schedule: Q04DX003 (ip), vehicle: Klucel (hydroxypropylcellulose) (HPC)) 2 of 6; under setting [2], 1 of 6; under setting [3], 0 of 6.

`FC(F)(F)C(c1ccc(Cl)cc1)c1ccc(Cl)cc1`: the survivor count is reported as 6 of 6 under setting [5] and 3 of 6 (T/C endpoint: mean survival time, dose: 400.0 mg/kg/injection, schedule: Q01DX009 (ip), vehicle: other).

For `COc1ccc(CCNC(=O)Cc2cc(OCc3ccccc3)c(OC)cc2[N+](=O)[O-])cc1OC`, the survivor count (T/C endpoint: mean survival time, dose: 100.0 mg/kg/injection, schedule: Q01DX001 (ip), vehicle: water) was 6 of 6.

With `O=C(O)c1c(O)c2cc(Cl)ccc2oc1=O`, the survivor count (T/C endpoint: mean survival time, dose: 200.0 mg/kg/injection, schedule: Q01DX001 (ip), vehicle: saline) is listed as 2 of 6.
